Laboratory results published in PubChem BioAssay AID2551 (National Center for Advancing Translational Sciences (NCATS), 2010).
Hit rate of the full screen: of about 310,000 compounds, about 17,000 (5.5%) were called active. This list was built around the results that the source calls inconclusive (neither active nor inactive); the mix of calls is not that of the screen. The call rests on the fitted dose curve; in most records, active means well fitted inhibition curve with a large enough effect; inconclusive means small, poorly fitted or top-dose-only effect, or effect the other way; inactive means no such curve, though single readings can be large or run the other way. Where the call is inconclusive, the potency comes from a doubtful curve fit.

Chains of the proteins cited; added tags and fusions are not shown. Lines headed by an entry give the natural chain unless they say otherwise; changes in a name come on top.
UniProt P51450: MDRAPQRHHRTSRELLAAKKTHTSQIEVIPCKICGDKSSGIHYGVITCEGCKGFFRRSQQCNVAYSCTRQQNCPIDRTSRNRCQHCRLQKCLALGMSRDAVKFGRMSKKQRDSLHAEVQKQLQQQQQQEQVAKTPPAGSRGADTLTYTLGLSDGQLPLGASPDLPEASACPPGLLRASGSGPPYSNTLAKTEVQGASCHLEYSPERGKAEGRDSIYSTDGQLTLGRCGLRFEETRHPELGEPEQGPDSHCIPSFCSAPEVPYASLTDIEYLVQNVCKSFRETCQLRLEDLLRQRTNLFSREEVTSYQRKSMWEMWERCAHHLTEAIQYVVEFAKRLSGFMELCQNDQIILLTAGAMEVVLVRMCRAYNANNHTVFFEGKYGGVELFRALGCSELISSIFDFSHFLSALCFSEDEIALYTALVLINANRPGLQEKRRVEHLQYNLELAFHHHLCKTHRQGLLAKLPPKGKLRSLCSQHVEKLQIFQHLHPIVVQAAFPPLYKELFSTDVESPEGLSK

Biological target: Nuclear receptor ROR-gamma (Mus musculus) (UniProt P51450)
Experiment: qHTS for inhibitors of ROR gamma transcriptional activity; further: nearly all actives have a fitted effect of over 60% in size
Conditions: Drosophila S2 Gal4-RORgamma UAS-luciferase reporter, 20 h; activity change, negative = inhibition: at 53.6 µM (top of the series)
In short: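 A Gal4/UAS one-hybrid system in insect cells: metallothionein-promoter Gal4–ROR gamma fusion plus Photinus luciferase reporter. Copper sulfate 700 uM final, 20 hr ambient incubation, luminescent detection after 10 min with reagent.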
On the % scale 0 is the no-effect control and ±100 the full control effect; potency means the concentration at half of the fitted maximal effect.

Potency, active:
COc1ccc(CNC(=S)Nc2ccc(OC)cc2)cc1 10 µM
Cc1c(C(=O)N/N=C/C(C)C)[nH]c2c([N+](=O)[O-])cccc12 2.24 µM
CCOC(=O)NC(=S)c1ccc[nH]1 12.6 µM
O=C(CNc1cccc2ccccc12)N/N=C/c1ccc([N+](=O)[O-])o1 11.2 µM
CCOc1cc(/C=N/Nc2ncnc(Cl)c2N)ccc1O 20 µM
O=C(c1ccc(C(F)(F)F)cc1)N1CCN(S(=O)(=O)c2ccc3c(c2)OCCCO3)CC1 12.6 µM
COc1ccc(-c2cn[nH]c2-c2ccc(OCc3ccc(F)cc3)cc2O)cc1OC 1.58 µM
O=C(Nc1nnc(C2=COCCO2)o1)c1ccc(F)cc1 0.891 µM
CCCn1c(COc2ccccc2)nc2ccccc21 12.6 µM
Cc1cccc(Cl)c1OCCCCn1ccnc1 15.8 µM
Cc1cc(C)n(-c2nc(SCC(=O)N3CCCC3)c3c4c(sc3n2)CCCC4)n1 6.31 µM

Potency, inconclusive:
C/C(=N\NC(=O)c1c(C)nc2ccccn12)c1ccc(C(C)(C)C)cc1 12.6 µM [inhibitor, single point]
CN(C)c1ccc(CNc2ncc(Br)cc2Br)cc1 3.16 µM [activator, full curve, poor fit]
CN(C)c1ccc(/C=N/Nc2nncc3ccccc23)cc1 35.5 µM [inhibitor, single point]
Oc1ccc(-n2nnnc2SCc2ccccc2Br)cc1 12.6 µM [activator, single point]
CCOC(=O)c1sc(NC(=O)COC(=O)CNC(=O)C2CCCCC2)c(C(=O)OCC)c1C 35.5 µM [activator, single point]
CSc1nc(C)c2c(n1)N(c1cccc(C)c1)CC2 7.94 µM [inhibitor, partial curve]
O=C(c1cccc(S(=O)(=O)Nc2cccc(C(F)(F)F)c2)c1)N1CCCCC1 15.8 µM [activator, partial curve]
CCCCN1C(=O)c2ccc(C(=O)Nc3cccnc3)cc2C1=O 11.2 µM [activator, partial curve]
Cc1ccc2c(c1)c1c(n2CC(O)CNC2CCCCC2)CCCC1 (configuration not stated) 35.5 µM [inhibitor, single point]
Cc1ccc(C(=O)CSc2nnnn2-c2ccccc2)o1 35.5 µM [activator, single point]
CSc1ccccc1NC(=S)Nc1ccccc1C(F)(F)F 12.6 µM [inhibitor, partial curve]
COCc1cc(C)nc(N2CCN(Cc3ccccc3)CC2)c1C#N 11.2 µM [inhibitor, partial curve]
O=C(NCC1(c2ccccc2)CCCC1)C1(c2ccccc2)CCCC1 14.1 µM [activator, partial curve]
Cc1cc(N2CCC(C)CC2)nc(SCC(=O)c2ccccc2)n1 3.16 µM [activator, partial curve]
O=C1CC(c2ccccc2)CC(O)=C1C=NC1CCCCCC1 (configuration not stated) 12.6 µM [activator, partial curve]
O=c1c2c(n3nnnc3n1-c1ccccc1)-c1ccccc1CC21CCCC1 8.91 µM [activator, partial curve]
COc1ccc(-c2noc(C(C)NC(=O)c3ccco3)n2)cc1OC (configuration not stated) 31.6 µM [activator, single point]
CCn1c(=O)c(C(=O)NCc2ccc3c(c2)OCO3)c(O)c2ccccc21 35.5 µM [inhibitor, single point]
Cc1cccc(-n2nc([N+](=O)[O-])c(=NCc3cccnc3)n2O)c1 14.1 µM [inhibitor, single point]
Cc1ccnc(NS(=O)(=O)c2ccc(NS(=O)(=O)Cc3ccccc3)cc2)n1 0.251 µM [inhibitor, full curve, poor fit]
Cc1ccc(C(=O)/C=C2/NC(=O)CS2)cc1 35.5 µM [inhibitor, single point]
O=C(Nc1ccc(Cl)c(C(F)(F)F)c1)C(=O)N1CCCCC1 12.6 µM [activator, partial curve]
CCCCCCOc1ccc(N2C(=O)CC(N(CCc3ccc(S(N)(=O)=O)cc3)C(C)=O)C2=O)cc1 (configuration not stated) 20 µM [activator, single point]
Cc1ccc(NC(=O)CSc2ncnc3ccccc23)cc1S(=O)(=O)N1CCCCCC1 35.5 µM [activator, single point]
CCOC(=O)Cc1csc(N/N=C\c2ccc(N(C)C)cc2)n1 11.2 µM [inhibitor, partial curve, poor fit]
COc1ccc(OC)c(NC(=O)C(CC(=O)O)Cc2ccc(Cl)cc2)c1 (configuration not stated) 0.794 µM [inhibitor, single point]
O=c1c2ccccc2nc2n1C(CSCc1cccc(C(F)(F)F)c1)CS2 (configuration not stated) 6.31 µM [activator, single point]
Cc1ccc(NNC(=O)c2cc(C(C)(C)C)nn2Cc2ccccc2)cc1 25.1 µM [inhibitor, single point]
O=C(Nc1cc2c(cc1Br)OCCO2)c1ccco1 0.562 µM [activator, full curve, poor fit]
CN(Cc1ccco1)C(=O)c1c[nH]c2ccc(S(=O)(=O)Nc3ccc4c(c3)OCCO4)cc2c1=O 5.62 µM [activator, single point]
CC(C)c1ccc(N=c2c([N+](=O)[O-])nn(-c3ccc4c(c3)OCCO4)n2O)cc1 5.62 µM [activator, single point]
CCOC(=O)c1c(NC(NC(=O)C(C)C)C(Cl)(Cl)Cl)sc2c1CCC2 (configuration not stated) 15.8 µM [activator, single point]
CCCN(CCC)Cc1c(C(=O)N/N=C/c2c[nH]c3ccccc23)nnn1-c1nonc1N 15.8 µM [inhibitor, single point]
CC(C)(C)c1cc(C(=O)N2CCc3ccccc32)ccn1 0.447 µM [inhibitor, full curve]
O=C(CSc1ncnc2scc(-c3ccccc3)c12)NCc1ccc2c(c1)OCO2 12.6 µM [activator, single point]
CCc1cc2c(=O)[nH]c(-c3ccncc3)nc2s1 5.62 µM [activator, full curve, poor fit]
Cc1ccccc1C(=O)NNc1ncnc2c1cnn2C 25.1 µM [inhibitor, single point]
COC(=O)C1CCN(S(C)(=O)=O)CC1 35.5 µM [inhibitor, single point]
NC(=O)c1c(NC(=O)c2ccncc2)sc2c1CCCCCC2 20 µM [activator, single point]

Activity change, negative = inhibition, inactive:
Cc1ccccc1-n1c(SCC(=O)O)nc2sc3c(c2c1=O)CCCC3 12%
COc1ccc(-c2ccnc3nc(N4CCOCC4)nn23)cc1 22.3%
Cn1c(=O)oc2cc(S(=O)(=O)NCc3cccnc3)ccc21 1.34%
COc1c2occc2c(OC)c2c(=O)cc(C(F)(F)C(F)(F)F)oc12 13.2%
CC1Cc2nc(SCC(=O)NC3CCCCC3)n(C)c(=O)c2S1 (configuration not stated) 3.7% [at 0.365 µM]
CC1=C(C(=O)Nc2ccccc2F)C(c2cccs2)C2=C(CCCC2=O)N1 (configuration not stated) 8.23%
C[C@@H]1CCC[C@H](C)N1Cc1nc(Cc2ccccc2Cl)no1 -6.06%
CCCCN1CCC[C@@H]1CNC(=O)c1cc(C#N)c2ccccc2c1OC 16.5%
CC(C)OC(=O)CC(=O)CSc1nc2c(cc1C#N)CCCC2 16.9%
CC(C)C(=O)NC(c1ccccc1Cl)c1c(O)ccc2ccccc12 (configuration not stated) 21.3%
Cn1c(NCc2ccco2)nc2c1c(=O)n(Cc1ccc(Br)cc1)c(=O)n2C 29.4%
COc1ccc(N(CC(=O)N2CCN(c3cc(C)ccc3C)CC2)S(=O)(=O)c2c(C)noc2C)cc1 12.6%
O=C(CSc1ccc(Cl)cc1)c1ccco1 23.4%
COc1ccc(-c2c[n+](CC(=O)c3ccccc3)c3n2CCCCC3)cc1 6.14%
CCN1CCCC(CO)(Cc2ccccc2)C1 (configuration not stated) -19.8%
Cc1[nH]c2ccccc2c1C(=O)CN1C(=O)C(=O)N(C2CCCC2)C1=O 26.3%
O=C(N=C1N=C2C=CC(Br)=CN2Cc2ccccc21)c1ccc([N+](=O)[O-])cc1[N+](=O)[O-] -20%
CC(C)(C)c1ccc(CN2C3=NCCCN3c3ccccc32)cc1 -4.84%
COc1cc(S(=O)(=O)N2CCN=C2c2ccccc2)ccc1F 1.03%
O=C(C1=C[C@H](c2ccccc2)C[C@H](OCCCCO)O1)N1CCOCC1 9.89%
O=C(NC1CC2CCC(C1)N2Cc1ccccc1)c1ccccc1Br (configuration not stated) -28.5%
O=C(Nc1ccc(Br)cc1)c1cc2ccccn2n1 -2.17%
COc1ccc(CC(NC(=O)c2ccccc2)C(=O)NCC(=O)O)cc1 (configuration not stated) 2.99%
O=C(c1ccccc1)N1CCC(CC2CC(c3ccc(Cl)cc3)=NO2)(C(=O)NCC2CCCCC2)CC1 (configuration not stated) 40.6%
CCCCNC(=O)CS(=O)Cc1nc(-c2cccc(C)c2)oc1C (configuration not stated) -37%
Cc1occc1C(=O)O/N=C(\N)c1ccc(Cl)cc1 16%
CC(C)(C)c1ccc(/C=N/NC(=O)C2CCCC2)cc1 43.7%

Six neighbouring compounds out of the list so far, for reference:
Activity change, negative = inhibition, inactive:
COc1cc(S(=O)(=O)N2CCN=C2c2ccccc2)ccc1F 1.03%
O=C(C1=C[C@H](c2ccccc2)C[C@H](OCCCCO)O1)N1CCOCC1 9.89%
O=C(NC1CC2CCC(C1)N2Cc1ccccc1)c1ccccc1Br (configuration not stated) -28.5%
O=C(Nc1ccc(Br)cc1)c1cc2ccccn2n1 -2.17%
COc1ccc(CC(NC(=O)c2ccccc2)C(=O)NCC(=O)O)cc1 (configuration not stated) 2.99%
O=C(c1ccccc1)N1CCC(CC2CC(c3ccc(Cl)cc3)=NO2)(C(=O)NCC2CCCCC2)CC1 (configuration not stated) 40.6%
